# Results reported in PubChem BioAssay AID652054 (National Center for Advancing Translational Sciences (NCATS), 2013).
# By UniProt entry, the sequences of proteins in these tests, tags left out.
# UniProt P35462, whole entry, looked up: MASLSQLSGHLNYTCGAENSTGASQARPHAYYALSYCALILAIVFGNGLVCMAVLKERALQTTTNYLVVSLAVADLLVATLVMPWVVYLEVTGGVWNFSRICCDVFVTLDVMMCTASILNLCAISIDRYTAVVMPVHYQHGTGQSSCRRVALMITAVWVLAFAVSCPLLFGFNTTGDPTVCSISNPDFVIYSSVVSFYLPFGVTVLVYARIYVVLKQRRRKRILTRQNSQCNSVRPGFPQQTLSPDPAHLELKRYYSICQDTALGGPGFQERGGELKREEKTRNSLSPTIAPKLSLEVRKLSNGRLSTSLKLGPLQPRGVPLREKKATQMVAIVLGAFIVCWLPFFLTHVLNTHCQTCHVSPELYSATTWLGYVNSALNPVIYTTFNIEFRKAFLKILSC
# About 9,100 (2.5%) of roughly 360,000 compounds were called active. The inconclusive results got no clear call from the source; some entries with a clear call stand among them for comparison. Cut-off read from the data, not from the text of the source: active = max response below about -50%; inconclusive = no clear call, values can overlap the other calls; inactive = above that.
# Biological target: D(3) dopamine receptor (Homo sapiens) (UniProt P35462)
# Test: qHTS of D3 Dopamine Receptor Antagonist: qHTS
# Conditions: D3R cells, DiscoveRx beta-arrestin luminescence, antagonist mode; hits give low values
# Summary of the method: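 Cells plated overnight at 1500 cells/well, then exposed to library compounds with dopamine controls for 90 minutes at 37 degrees C. DiscoveRx reagent added for 30–60 minutes at room temperature; luminescence read, quantitative HTS format.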
# % is set by controls: 0 for no effect and ±100 for the full control effect.
row,SMILES,"max response, negative = inhibition"
1,CC(=O)Nc1nnc(/C=C/c2cccc([N+](=O)[O-])c2)s1,inactive: 25.9%
2,CSc1cccc(N2CC(C(=O)Nc3ccccc3N3CCCC3)CC2=O)c1 (stereo unspecified),inactive: 5%
3,COc1cc(OC)cc(C(=O)NC(=S)Nc2cccnc2)c1,inconclusive: -45.8%
4,CCOC(=O)NC(NC(=S)Nc1ccccc1[N+](=O)[O-])C(Cl)(Cl)Cl (stereo unspecified),inconclusive: -33.1%
5,Cc1cccc(NC(=O)Nc2nnc([C@@H]3C[C@H](O)[C@@H](CO)O3)s2)c1,inactive: 7.9%
6,COC(C(=O)Nc1ccnn1C1CCN(Cc2ccc(C)o2)CC1)c1ccccc1 (stereo unspecified),inconclusive: -43.7%
7,CCOC(=O)c1ccc(NC(=S)N(CCN2CCCCCC2)Cc2cccs2)cc1,active: -74.9%
8,COC(=O)c1ccc2nc(NC(=O)CSCC(=O)OCC(=O)c3ccccc3)sc2c1,inconclusive: -43.4%
9,CN1CCN(C(=O)c2ccc(S(=O)(=O)c3ccc(Br)cc3)cc2)CC1,inactive: 8.94%
10,Cc1ccc(NC(=O)N2CCCC2C(=O)Nc2ccc(-n3cnnn3)c(C)c2)cc1 (stereo unspecified),inconclusive: -49%
11,N#Cc1cccc(NC(=O)CN2CCN(Cc3ccccc3)CC2)c1,inconclusive: -38.7%
12,CCC1CCCCN1C(=O)CCc1nnc(Cc2c[nH]c3ccccc23)o1 (stereo unspecified),inconclusive: -37.3%
13,CCc1nc2c(OCc3ccc(Cl)cc3Cl)cccn2c1N(C)C(=O)CC(C)C,inconclusive: -39.5%
14,COc1cc(/C=N/O)ccc1Oc1ccc([N+](=O)[O-])cc1[N+](=O)[O-],inactive: -7.29%
15,COc1ccc(NC(=O)CNC(=O)C2CCCCC2)cc1OC,inconclusive: -35%
16,O=C(CCc1nc2ccccc2c(=O)[nH]1)Nc1ccc(F)cc1,active: -53.7%
17,CC(C)(C)c1csc(NC(=O)c2ccc3nccnc3c2)n1,inactive: 1.67%
18,Cc1ccc(NC(=O)CCN2C(=O)c3ccccc3Sc3ncccc32)cc1,inactive: -9.29%
19,CC(C)(C)OC(=O)N1CCC(c2cc(=O)n3[nH]c(-c4ccc(Cl)cc4)cc3n2)CC1,inconclusive: -31%

row,SMILES,"max response, negative = inhibition"
1,CCn1cc(C(=O)OCC(=O)c2cc(C)n(-c3ccccc3)c2C)c(=O)c2ccc(C)nc21,inactive: -19.4%
2,Cc1cc(C)cc(OC(=O)CCN2C(=O)c3ccccc3C2=O)c1,inconclusive: -30%
3,COc1ccc(CNC(=O)COC(=O)c2c(NC(C)=O)sc(C)c2C)cc1OC,inactive: 2.9%
4,Cn1c(CCN2CCN(c3ccccc3)CC2)nc2cc(NC(=O)c3ccco3)ccc21,inconclusive: -35.9%
5,CCOC(=O)c1sc2nc(CC(=O)OC)nc(NCc3ccc(Cl)cc3)c2c1C,inconclusive: -39.4%
6,Cn1ccnc1SCc1cn2cc(Br)ccc2n1,inconclusive: -30.5%
7,O=C(O)c1cc(NC(=O)c2cccc(N3C(=O)c4ccccc4C3=O)c2)cc(C(=O)O)c1,inconclusive: -45.8%
8,Cc1ccnn1CC(=O)N/N=C/c1ccc2c(c1)OCO2,inconclusive: -36.6%
9,COc1ccc(S(=O)(=O)N2CC=C(c3ccccc3)CC2)cc1OC,inconclusive: -33.7%
10,COc1ccc(NC(=S)N2CCC(c3ccc(C)cc3)C2)cc1 (stereo unspecified),inactive: 18.5%
11,CC(C)c1ccc(S(=O)(=O)N2CCN(C(=O)CN3C(=O)NC4(CCCC4)C3=O)CC2)cc1,inconclusive: -32.7%
12,Cc1[nH]nc2nc(SCC(=O)NCCC3=CCCCC3)n(-c3ccc(Br)cc3)c(=N)c12,inconclusive: -32.8%
13,O=C(Cn1cc(/C=C\[N+](=O)[O-])c2ccccc21)Nc1ccccc1,inconclusive: -36.3%
14,CN1CCN(c2ccc(NC(=O)c3ccc4ccccc4c3)cc2)CC1,inconclusive: -30.2%
15,Cc1ccc(NC(=O)C2C3CCCC2C3c2ccccc2)cc1C (stereo unspecified),inconclusive: -31.5%
16,COc1ccc(-c2cc(C(F)(F)F)nc(S(=O)(=O)CCCC(=O)Nc3cc(C)on3)n2)cc1OC,inconclusive: -48.9%
17,C=CCN1C(c2ccc(Br)cc2)=CS/C1=C(/C#N)c1nnc(N2CCOCC2)n1-c1ccccc1,inactive: 7.01%
18,COc1ccc(C(=O)N2CCN(C3CCC(c4ccccc4)CC3)CC2)cc1OC (stereo unspecified),inconclusive: -43.7%
19,CC(=O)Nc1ccc(NC(=O)CSc2ncc(C(=O)Nc3ccccc3)c(=O)n2C)cc1,inconclusive: -36.1%

row,SMILES,"max response, negative = inhibition"
1,Cc1cc(C)n(CC(=O)c2cccc([N+](=O)[O-])c2)n1,active: -57.5%
3,COC(=O)c1sc2ccccc2c1-n1cccc1C(=O)C(=O)Nc1ccc(Cl)cc1,inconclusive: -31.7%
4,O=S1(=O)CC(N2CCN(CC3CC3)CC2)CN1C1CCCCC1 (stereo unspecified),inconclusive: -35.1%
5,COc1ccc(OCC(O)CNCCNc2nccc(C(F)(F)F)n2)cc1 (stereo unspecified),inconclusive: -49.1%
6,COCCn1c(SCC(=O)c2ccc(F)cc2)nnc1C(C)C,inactive: 3.99%
7,COc1ccccc1NS(=O)(=O)c1ccc(O)c(C(=O)OCC(=O)N2c3ccccc3CC2C)c1 (stereo unspecified),active: -106%
8,CCN(CC1CCCN(CCc2cccc(F)c2)C1)C(=O)c1cc2ccccc2o1 (stereo unspecified),inconclusive: -45%
9,Cc1cc(NC(=O)CN2CCN(C)CC2)no1,inactive: -13.9%
10,Cc1cccc(CN2CCN(Cc3cnn(-c4ccccc4F)c3)CC2CCO)n1 (stereo unspecified),active: -69%
11,CCOc1ccccc1NC(=O)c1oc2ccccc2c1NC(=O)C1CC1,inactive: 12.3%
12,O=C(Cn1ncc(Cl)c(Cl)c1=O)NC(=O)NC1CCCCC1,active: -68.1%
13,CCc1nc2c(OCC(=O)C(C)(C)C)cccn2c1N(C)C(=O)COc1ccccc1,inactive: 0%
14,COc1cccc(-c2cccc(NC(=O)C3CCN(Cc4ccon4)CC3)c2)c1,inactive: 4.64%
15,O=C1CC(c2ccc3ccccc3c2)NN1 (stereo unspecified),inactive: 28.4%
16,CCOC(=O)C(NCCCO)c1ccccc1 (stereo unspecified),inconclusive: -39%
17,COc1ccc(F)cc1CN1CCN(CC(=O)N2CCc3ccccc32)CC1,inconclusive: -48.8%
18,Cn1c(CN2CCCCC2)c(C#N)c2ccccc21,active: -78.3%

# Exported tab-delimited: part of the list above
row	SMILES	max response, negative = inhibition
6	COC(C(=O)Nc1ccnn1C1CCN(Cc2ccc(C)o2)CC1)c1ccccc1 (stereo unspecified)	inconclusive: -43.7%
7	CCOC(=O)c1ccc(NC(=S)N(CCN2CCCCCC2)Cc2cccs2)cc1	active: -74.9%
15	Cc1ccc(NC(=O)C2C3CCCC2C3c2ccccc2)cc1C (stereo unspecified)	inconclusive: -31.5%
19	CC(=O)Nc1ccc(NC(=O)CSc2ncc(C(=O)Nc3ccccc3)c(=O)n2C)cc1	inconclusive: -36.1%
18	Cn1c(CN2CCCCC2)c(C#N)c2ccccc21	active: -78.3%
